# Reference: PubChem BioAssay AID485298 (National Center for Advancing Translational Sciences (NCATS), 2010)
# About 740 (0.23%) of roughly 320,000 compounds were called active. This list was built around the results that the source calls inconclusive (neither active nor inactive); the mix of calls is not that of the screen. Calls follow the shape of the dose curve; as a rule, active = well fitted activation curve with a large enough effect; inconclusive = small, poorly fitted or top-dose-only effect; inactive = no such curve, though single readings can be large or run the other way. Where the call is inconclusive, the potency comes from a doubtful curve fit.
# Assay: qHTS Assay for Small Molecule Inhibitors of Mitochondrial Division or Activators of Mitochondrial Fusion; also: nearly all actives have a fitted effect of over 45% in size
# Settings: S. cerevisiae fusion-defective mutant growth rescue, CellTiterGlo 48 h; series mostly up to 46.1 µM
# Procedure, shortened: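 Luminescent cell viability in 1536-well qHTS format served as the measure of rescued growth in ts fusion-mutant S. cerevisiae cultured on non-fermentable YPEG for 48 hours at 37C.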
# Potency is read from the fitted curve at half-maximal effect.
row,SMILES,Potency
1,COc1ccc(-n2ncc3c(N4CCN(Cc5ccccc5)CC4)ncnc32)cc1,"inconclusive: 3.16 µM [activator, partial curve]"
2,COc1ccc2nc(C)cc(N/N=C/c3ccccc3)c2c1,inactive
3,CC(C)CC1Nc2ncnc(N3CCN(c4ccccc4)CC3)c2N(Cc2ccccc2)C1=O (configuration not stated),"inconclusive: 15.8 µM [activator, single point]"
4,COc1cccc(Nc2nc(N)c([N+](=O)[O-])c(NCc3ccco3)n2)c1,"inconclusive: 11.2 µM [activator, partial curve]"
5,Cc1ccc(S(=O)(=O)/N=C2/NC(=O)/C(=C\c3cc(Br)cc(Br)c3O)S2)cc1,inactive
6,CC(=O)OCc1c(C(F)(F)F)nn(C)c1Sc1ccccc1,inactive
7,COc1ccccc1N1CCN(C(=O)C(=O)N/N=C/c2ccccc2F)CC1,"inconclusive: 3.55 µM [activator, single point]"
8,Cc1noc(C)c1C(=O)Nc1sc(C)c(-c2ccccc2)c1C#N,"inconclusive: 14.1 µM [activator, single point]"
9,O=[N+]([O-])c1ccc(N/N=C/c2cccc(O)c2)cc1,"inconclusive: 31.6 µM [activator, single point]"
10,Cc1cc(C)n2c(SC/C(O)=C(\C#N)c3nc4ccccc4[nH]3)nnc2n1,inactive
11,CCN(CC(=O)Nc1ccccc1C(F)(F)F)C(=O)c1ccc2[nH]c3c(c2c1)CC(C)CC3 (configuration not stated),"inconclusive: 22.4 µM [activator, single point]"
12,COc1ccc(C(=O)NC2CCCc3ccccc32)c(OC)c1OC (configuration not stated),"inconclusive: 20 µM [activator, partial curve]"
13,O=C(N/N=C/c1nn(-c2ccccc2)cc1-c1ccccc1)c1ccncc1,"inconclusive: 35.5 µM [activator, single point]"
14,Cc1ccc(Cn2c(O)c(N=O)c3ccccc32)cc1,"inconclusive: 11.2 µM [activator, partial curve]"
15,CN(CCOc1ccc(Cl)cc1)C(=O)c1cc(S(=O)(=O)N2CCOCC2)ccc1N1CCCC1,inactive
16,Cn1nc(C(=O)N2CCN(c3cccc(Cl)c3)CC2)c2c1-c1ccccc1S(=O)(=O)C2,active: 11.2 µM
17,CCc1nc(SCC(=O)c2ccccc2)c2c(=O)n(C)c(=O)n(C)c2n1,inactive
18,Cc1ccc(C(=O)COC(=O)c2ccc(O)cc2)cc1,inactive
19,CCOC(=O)C1CCN(C2CCN(C(=O)c3oc4c(F)cccc4c3C)CC2)CC1,"inconclusive: 31.6 µM [activator, single point]"
20,COc1ccc([C@H]2CC(=O)C=C(c3ccc(Cl)c(Cl)c3)C2)cc1,"inconclusive: 31.6 µM [activator, single point]"
21,O=C(CCCN1C(=O)/C(=C/c2ccc(F)cc2)SC1=S)NCCCn1ccnc1,inactive
22,CS(=O)(=O)N1CCN(c2ccc(C(=O)NC34CC5CC(CC(C5)C3)C4)cc2[N+](=O)[O-])CC1,inactive
23,COc1ccc(C(C)NC(=S)NCc2ccc(F)cc2)cc1 (configuration not stated),inactive
24,c1ccc(Cn2nnnc2C(c2cccs2)N2CCc3ccccc3C2)cc1 (configuration not stated),"inconclusive: 10 µM [activator, partial curve]"

row,SMILES,Potency
1,CN(C)c1ccc(-c2nnn(CC(=O)N3c4ccccc4CCc4ccccc43)n2)cc1,inactive
2,O=S(Cc1cc(Sc2ccccc2)nc(-c2ccccc2)n1)c1ccccc1 (configuration not stated),"inconclusive: 14.1 µM [activator, single point]"
3,CCc1ccc(N=c2c([N+](=O)[O-])nn(-c3ccccc3)n2O)cc1,active: 17.8 µM
4,COC(=O)c1ccc(Cn2nc(-c3cc(C)ccc3C)ccc2=O)cc1,"inconclusive: 17.8 µM [activator, partial curve]"
5,COc1cc2c(cc1NC(=O)CSc1nccn1C)oc1ccccc12,"inconclusive: 31.6 µM [activator, single point]"
6,O=C(COc1ccc(Cl)cc1)Nc1nnc(-c2ccc3c(c2)CCCC3)o1,"inconclusive: 2.82 µM [activator, full curve]"
7,C[C@H](NC(=O)c1ccccc1)C(=O)OCC(=O)c1c[nH]c2ccccc12,inactive
8,Cc1ccc(S(=O)(=O)NN2C(=O)/C(=C/c3cccn3C)SC2=S)cc1,"inconclusive: 15.8 µM [activator, partial curve]"
9,CCOC(=O)c1ccc(N2C(=O)c3n[nH]c(C)c3C2c2ccc(OC)c(OC)c2)cc1 (configuration not stated),"inconclusive: 6.31 µM [activator, single point]"
10,CC(C)c1ccc(C(=O)N/N=C/c2cccc(Cl)c2Cl)cc1,inactive
11,Cc1cccc(CC(=O)NC2CCS(=O)(=O)C2)c1 (configuration not stated),inactive
12,CC(C)(C)Nc1nc2cc([N+](=O)[O-])ccc2o1,inactive
13,Cc1cccc(CN2C(=O)/C(=C\c3ccc(C(=O)NCCCN4CCN(C)CC4)cc3)Oc3ccccc32)c1,"inconclusive: 15.8 µM [activator, partial curve]"
14,CCOc1ccc(-n2c(SCc3ccc([N+](=O)[O-])cc3)nnc2-c2ccc(OC)cc2)cc1,"inconclusive: 17.8 µM [activator, partial curve]"
15,CCCc1cc(=O)oc2c(C)c3occ(C)c3cc12,active: 10 µM
16,COc1ccc2nc(N=Nc3ccc(N(C)C)cc3)sc2c1,inactive
17,O=C(O)c1ccc(Cn2cnc3scc(-c4ccccc4)c3c2=O)cc1,inactive
18,COc1ccccc1NS(=O)(=O)c1cc(N/C(=N\S(=O)(=O)c2ccccc2)c2ccc(F)cc2)ccc1Cl,"inconclusive: 35.5 µM [activator, single point]"
19,COc1ccc(-c2sc3ccccc3c2C#CC2(O)CCCCC2)cc1,"inconclusive: 35.5 µM [activator, single point]"
20,Cc1ccc(N2CCN(C(=O)c3nn(C)c4c3CS(=O)(=O)c3ccccc3-4)CC2C)cc1 (configuration not stated),"inconclusive: 35.5 µM [activator, single point]"
21,Cn1cccc1/C=C1\SC(=S)N(NC(=O)c2ccccc2Cl)C1=O,"inconclusive: 12.6 µM [activator, partial curve]"
22,CCOC(=O)C1CCCN(C(=S)Nc2ccc(Nc3ccccc3)cc2)C1 (configuration not stated),inactive
23,CCCOC(=O)c1ccc(NC(=O)c2c(Cl)ccc(Cl)c2OC)cc1,"inconclusive: 17.8 µM [activator, single point]"
24,CCOC(=O)C1CCCN(c2ncnc3c2[nH]c2cccc(OC)c23)C1 (configuration not stated),"inconclusive: 22.4 µM [activator, single point]"

row,SMILES,Potency
1,Clc1ccc(CSc2ncn(-c3ccccc3)n2)cc1,"inconclusive: 35.5 µM [activator, single point]"
2,O=C(NCCOc1ccc(Cl)cc1)c1ccc2ccccc2n1,"inconclusive: 15.8 µM [activator, single point]"
3,Cc1cc(C)nc(SCc2ccc(C(=O)NN=C3C4CC5CC(C4)CC3C5)cc2)n1,"inconclusive: 31.6 µM [activator, single point]"
4,Cc1ccc2c(c1)N(S(=O)(=O)c1ccc(CN3C(=O)c4cccnc4C3=O)s1)CCO2,inactive
5,CCOc1cc(S(=O)(=O)NCCc2ccc(OC)c(OC)c2)c(OCC)cc1-n1cnnn1,inactive
6,O=C(COc1ccc(Br)cc1)N1CCN(S(=O)(=O)/C=C/c2ccccc2)CC1,"inconclusive: 25.1 µM [activator, single point]"
7,CC(=O)N1N=C(c2ccccc2OC(=O)/C=C/c2ccccc2)CC1c1ccccc1 (configuration not stated),"inconclusive: 12.6 µM [activator, single point]"
8,CCOC(=O)C1=C(C)NC2=C(C(=O)OC2)C1c1ccccc1 (configuration not stated),"inconclusive: 31.6 µM [activator, single point]"
9,CCCCNC(=O)Nc1nc2ccc(CC)cc2s1,"inconclusive: 22.4 µM [activator, partial curve]"
10,Nc1nc(CSC(=S)N2CCN(c3ccccc3)CC2)nc(Nc2ccccc2)n1,"inconclusive: 1.58 µM [activator, full curve, poor fit]"
11,Clc1ccccc1COc1ccccc1-c1nnco1,inactive
12,CCN1CCc2c(OCC(=O)N3N=C(c4cccs4)CC3c3ccc(F)cc3)cccc2C1=O (configuration not stated),"inconclusive: 25.1 µM [activator, single point]"
13,O=C(CCSc1ccccc1)N1CCN(c2ccccc2F)CC1,"inconclusive: 12.6 µM [activator, partial curve]"
14,Cc1cccc(C)c1NC(=O)CCCSc1nnc(-c2ccc(Cl)cc2)n1-c1ccccc1,"inconclusive: 31.6 µM [activator, single point]"
15,CSCCC1NC(=O)N(CC(=O)Nc2ccc(Br)cc2Br)C1=O (configuration not stated),inactive
16,Cn1cccc1/C=N/n1c(-c2ccc(Cl)cc2)n[nH]c1=S,inactive
17,CCOC(=O)Nc1sc2c(c1C#N)CCC(C)C2 (configuration not stated),"inconclusive: 22.4 µM [activator, single point]"
18,COc1ccc(C)cc1NC(=O)c1cc2c(=O)n3ccccc3nc2n1C,inactive
19,CCCCN(CCCC)CCNC(=O)CNC(=O)c1cccs1,active: 31.6 µM
20,CCC(C)(C)NC(=O)C(c1sccc1C)N(Cc1ccco1)C(=O)c1csnn1 (configuration not stated),"inconclusive: 20 µM [activator, partial curve]"
21,OCCCNc1nc(-c2ccc(Br)cc2)nnc1-c1ccc(Cl)cc1,active: 22.4 µM
22,O=C(Nc1cccc(OC(=O)c2ccc(Br)o2)c1)c1ccccc1,"inconclusive: 31.6 µM [activator, single point]"
23,CCOC(=O)c1c(CSc2ccccc2)oc2ccc(O)cc12,"inconclusive: 11.2 µM [activator, partial curve]"
24,COc1ccc(/C=C/c2nc(-c3ccccc3O)n[nH]2)cc1,"inconclusive: 11.2 µM [activator, partial curve]"

# Four entries from above, reformatted.
row	SMILES	Potency
11	Clc1ccccc1COc1ccccc1-c1nnco1	inactive
12	CCN1CCc2c(OCC(=O)N3N=C(c4cccs4)CC3c3ccc(F)cc3)cccc2C1=O (configuration not stated)	inconclusive: 25.1 µM [activator, single point]
13	O=C(CCSc1ccccc1)N1CCN(c2ccccc2F)CC1	inconclusive: 12.6 µM [activator, partial curve]
14	Cc1cccc(C)c1NC(=O)CCCSc1nnc(-c2ccc(Cl)cc2)n1-c1ccccc1	inconclusive: 31.6 µM [activator, single point]
